No constants are given. Whether binding was seen depends on the method and setting. Some binding calls cover weakened binding; strength is not graded here.
Molecular target: T1, human CD39 endogenously expressed on Ramos human lymphoma cells (human) (UniProt P49961)
T1 sequence: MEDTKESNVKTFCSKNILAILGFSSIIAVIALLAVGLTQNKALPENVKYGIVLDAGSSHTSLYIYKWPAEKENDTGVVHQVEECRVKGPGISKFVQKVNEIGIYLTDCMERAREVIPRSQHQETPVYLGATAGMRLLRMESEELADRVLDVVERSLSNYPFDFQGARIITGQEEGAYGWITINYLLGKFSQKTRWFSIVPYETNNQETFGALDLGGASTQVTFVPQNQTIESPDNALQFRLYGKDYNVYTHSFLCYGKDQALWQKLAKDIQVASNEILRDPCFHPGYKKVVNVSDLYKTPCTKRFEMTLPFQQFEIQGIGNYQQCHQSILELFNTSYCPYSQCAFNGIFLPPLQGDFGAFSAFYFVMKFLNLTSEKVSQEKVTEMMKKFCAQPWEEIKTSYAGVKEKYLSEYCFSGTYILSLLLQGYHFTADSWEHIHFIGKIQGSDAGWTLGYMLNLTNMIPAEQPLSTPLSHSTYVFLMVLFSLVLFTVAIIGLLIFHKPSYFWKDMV
Assay: flow cytometry, antibody titration on Ramos cells endogenously expressing CD39

binding: binds
B1: HH1/L0 (antibody, human IgG1, V domains shown)
VH: QVQLVQSGSELKKPGASVKVSCKASGYTFTHYGMNWVRQAPGQGLKWMGWINTYTGEPTYAQDFKGRFVFSLDTSVSTAYLQISSLKAEDTAVYYCARRRYEGNYVFYYFDYWGQGTTVTVSS
VL: DIQMTQSPSSLSASVGDRVTITCRASENIYSYFSWYQQKPGKAPKLLIYTAKTLAEGVPSRFSGSGSGTDFTLTISSLQPEDFATYYCQHHYVTPYTFGGGTKVEIK

Source: WO2018065552A1 (dated 2018)
